Measured values taken from PMC11489178.
These are yes or no findings as the source states them, for the method shown. In cells and extracts the contact can be indirect. Here binding means that the protein was enriched with, or labelled near, the bait; the list need not be complete.

Biological target: HSPD1 (endogenous) (human (endogenous in MNNG/HOS)), P10809
Assay: affinity purification with mass spectrometry; co-IP with antibodies against HSPD1 or IgG (control), LC-MS/MS; cells not stated in the main text
Details: remark: other sources report otherwise

binding: binds
B1: ATP5A1 (endogenous), P25705 44-553 (protein)
chain: QKTGTAEMSSILEERILGADTSVDLEETGRVLSIGDGIARVHGLRNVQAEEMVEFSSGLKGMSLNLEPDNVGVVVFGNDKLIKEGDIVKRTGAIVDVPVGEELLGRVVDALGNAIDGKGPIGSKTRRRVGLKAPGIIPRISVREPMQTGIKAVDSLVPIGRGQRELIIGDRQTGKTSIAIDTIINQKRFNDGSDEKKKLYCIYVAIGQKRSTVAQLVKRLTDADAMKYTIVVSATASDAAPLQYLAPYSGCSMGEYFRDNGKHALIIYDDLSKQAVAYRQMSLLLRRPPGREAYPGDVFYLHSRLLERAAKMNDAFGGGSLTALPVIETQAGDVSAYIPTNVISITDGQIFLETELFYKGIRPAINVGLSVSRVGSAAQTRAMKQVAGTMKLELAQYREVAAFAQFGSDLDAATQQLLSRGVRLTELLKQGQYSPMAIEEQVAVIYAGVRGYLDKLEPSKITKFENAFLSHVVSQHQALLGTIRADGKISEQSDAKLKEIVTNFLAGFEA
